PubChem BioAssay AID248 (DTP/NCI, 2004)
The list is a part of this screen's results and no random one: it gathers tests that were run many times, whatever their T/C, doses with no T/C, and many T/C values between a quarter and a half above the control. Further doses and runs are listed elsewhere. T/C gives the treated animals as a percentage of the vehicle group. Some entries give survivors of the animals treated and no T/C: the source files T/C as zero there, which appears to mark a toxic dose or a test without result, not a measured value. Survivors were counted at the toxicity check, usually on the fifth day, unless a day is given; later deaths do not show. Schedules are NCI's codes, read here as Q, the interval in days (D) or hours (H), X, the number of doses. Some doses were run more than once; their values stand side by side, smallest first. Where survival is the endpoint, this PubChem deposit counts one and a half times the control or more as active, and values a quarter to a half above the control carry no call in these data; other NCI protocols may use other cut-offs. Some T/C values are followed by the survivors on the day toxicity was checked, most often the fifth; without a count, all were alive then.

System: L1210 leukemia ip in BDF1 mice, survival T/C
Experiment: NCI In Vivo Anticancer Drug Screen. Data for tumor model L1210 Leukemia (intraperitoneal) in B6D2F1 (BDF1) mice
Conditions: T/C endpoint: mean survival time, higher T/C = longer survival

Compound: NS(=O)(=O)O.[Ni]
- T/C (dose: 25.0 mg/kg/injection, schedule: Q04DX003 (ip), vehicle: saline): 137 % of control [5 of 6 alive]
- survivor count (dose: 100.0 mg/kg/injection, schedule: Q04DX003 (ip), vehicle: saline): 1 of 6 and 2 of 6
- survivor count (dose: 200.0 mg/kg/injection, schedule: Q04DX003 (ip), vehicle: saline): 0 of 6
- survivor count (dose: 400.0 mg/kg/injection, schedule: Q04DX003 (ip), vehicle: saline): 0 of 6

Compound: Cc1ccc(S(=O)(=O)CCCl)cc1
- survivor count (dose: 400.0 mg/kg/injection, schedule: Q04DX003 (ip), vehicle: Klucel (hydroxypropylcellulose) (HPC)): 1 of 6

Compound: Cc1ccc(SCCCN)cc1
- survivor count (dose: 300.0 mg/kg/injection, schedule: Q01DX001 (ip), vehicle: saline): 1 of 6
